Source: paper PMC5467242
These are yes or no findings as the source states them, for the method shown. Binding seen in cells or lysates may run through a third protein. Some binding calls cover weakened binding; strength is not graded here. For part of these data: Where a sequence is shown, tags or fusion partners need not be part of it.

The chains behind the UniProt entries cited, without tags or fusion partners.
UniProt A2BH40: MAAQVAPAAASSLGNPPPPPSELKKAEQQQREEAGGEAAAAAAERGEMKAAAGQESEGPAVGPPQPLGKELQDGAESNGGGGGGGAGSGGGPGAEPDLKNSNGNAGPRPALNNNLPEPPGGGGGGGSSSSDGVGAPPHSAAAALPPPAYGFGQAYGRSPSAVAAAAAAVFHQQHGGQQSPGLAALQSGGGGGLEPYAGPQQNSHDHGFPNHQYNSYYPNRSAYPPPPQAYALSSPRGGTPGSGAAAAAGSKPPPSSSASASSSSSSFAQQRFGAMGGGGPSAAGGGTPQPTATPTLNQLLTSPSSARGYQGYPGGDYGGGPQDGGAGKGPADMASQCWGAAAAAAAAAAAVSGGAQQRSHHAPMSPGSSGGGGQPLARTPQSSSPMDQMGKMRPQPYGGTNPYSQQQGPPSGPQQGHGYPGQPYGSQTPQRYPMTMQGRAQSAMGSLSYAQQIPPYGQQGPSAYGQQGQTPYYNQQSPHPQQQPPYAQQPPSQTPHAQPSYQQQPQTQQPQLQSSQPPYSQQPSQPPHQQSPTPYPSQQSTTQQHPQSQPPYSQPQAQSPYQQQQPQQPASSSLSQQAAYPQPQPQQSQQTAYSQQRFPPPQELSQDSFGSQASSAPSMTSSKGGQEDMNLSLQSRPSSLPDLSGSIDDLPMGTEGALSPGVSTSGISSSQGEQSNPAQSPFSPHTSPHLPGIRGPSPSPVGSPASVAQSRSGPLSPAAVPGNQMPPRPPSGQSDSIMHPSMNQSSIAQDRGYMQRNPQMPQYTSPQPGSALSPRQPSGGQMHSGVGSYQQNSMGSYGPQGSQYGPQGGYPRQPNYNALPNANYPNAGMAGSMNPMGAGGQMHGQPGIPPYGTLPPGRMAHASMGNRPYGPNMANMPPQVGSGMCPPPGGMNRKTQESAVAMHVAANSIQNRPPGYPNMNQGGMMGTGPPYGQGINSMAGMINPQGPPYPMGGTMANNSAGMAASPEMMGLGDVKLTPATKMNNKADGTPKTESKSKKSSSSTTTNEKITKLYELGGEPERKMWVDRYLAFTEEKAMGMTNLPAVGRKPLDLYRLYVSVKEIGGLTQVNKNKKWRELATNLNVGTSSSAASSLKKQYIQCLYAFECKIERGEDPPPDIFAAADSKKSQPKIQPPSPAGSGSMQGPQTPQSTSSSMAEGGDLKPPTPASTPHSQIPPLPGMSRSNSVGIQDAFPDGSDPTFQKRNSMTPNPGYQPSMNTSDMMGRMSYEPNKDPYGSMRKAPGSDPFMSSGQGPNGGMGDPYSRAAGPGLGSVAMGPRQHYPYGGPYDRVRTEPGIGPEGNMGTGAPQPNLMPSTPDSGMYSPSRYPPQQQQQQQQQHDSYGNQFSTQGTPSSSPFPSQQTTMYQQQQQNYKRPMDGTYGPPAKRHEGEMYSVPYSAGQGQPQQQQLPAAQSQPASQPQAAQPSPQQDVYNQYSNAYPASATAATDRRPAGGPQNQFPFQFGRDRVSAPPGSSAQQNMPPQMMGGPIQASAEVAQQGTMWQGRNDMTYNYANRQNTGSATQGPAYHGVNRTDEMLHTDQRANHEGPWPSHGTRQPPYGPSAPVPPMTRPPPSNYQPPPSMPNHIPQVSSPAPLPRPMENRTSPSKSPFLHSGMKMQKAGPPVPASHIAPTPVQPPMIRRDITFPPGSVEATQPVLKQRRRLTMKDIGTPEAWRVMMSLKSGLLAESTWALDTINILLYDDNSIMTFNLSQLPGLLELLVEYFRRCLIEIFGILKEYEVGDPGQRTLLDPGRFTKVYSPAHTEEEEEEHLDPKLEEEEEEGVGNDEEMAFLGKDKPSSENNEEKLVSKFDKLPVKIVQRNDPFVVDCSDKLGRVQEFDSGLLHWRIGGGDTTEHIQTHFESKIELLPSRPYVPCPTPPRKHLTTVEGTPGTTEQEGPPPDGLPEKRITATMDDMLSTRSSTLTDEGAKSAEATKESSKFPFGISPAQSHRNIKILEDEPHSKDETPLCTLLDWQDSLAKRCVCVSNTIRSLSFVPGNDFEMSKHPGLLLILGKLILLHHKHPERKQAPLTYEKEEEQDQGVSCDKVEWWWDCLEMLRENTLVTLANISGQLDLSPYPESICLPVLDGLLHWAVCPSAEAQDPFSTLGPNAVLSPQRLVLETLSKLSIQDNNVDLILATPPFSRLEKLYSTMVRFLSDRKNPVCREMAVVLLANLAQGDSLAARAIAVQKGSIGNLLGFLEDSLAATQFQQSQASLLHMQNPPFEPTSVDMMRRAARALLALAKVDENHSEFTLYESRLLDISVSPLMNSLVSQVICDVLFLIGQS

T1: GST-WASH (mouse) (UniProt Q8VDD8)
T1 sequence: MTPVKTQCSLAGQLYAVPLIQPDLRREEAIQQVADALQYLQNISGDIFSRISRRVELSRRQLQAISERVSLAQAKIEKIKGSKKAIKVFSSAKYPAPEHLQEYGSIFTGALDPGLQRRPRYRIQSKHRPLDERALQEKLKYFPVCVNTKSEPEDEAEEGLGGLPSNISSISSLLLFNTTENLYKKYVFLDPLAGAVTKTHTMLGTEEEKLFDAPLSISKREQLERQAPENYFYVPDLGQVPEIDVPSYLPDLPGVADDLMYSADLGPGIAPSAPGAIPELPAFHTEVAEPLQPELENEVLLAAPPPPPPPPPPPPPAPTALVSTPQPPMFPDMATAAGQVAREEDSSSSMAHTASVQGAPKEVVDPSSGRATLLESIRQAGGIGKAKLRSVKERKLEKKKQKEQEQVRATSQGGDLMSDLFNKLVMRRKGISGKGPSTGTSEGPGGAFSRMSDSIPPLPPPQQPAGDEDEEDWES

T2: WASH (mouse (endogenous in ILC3 cells)) (UniProt Q8VDD8)
T2 sequence: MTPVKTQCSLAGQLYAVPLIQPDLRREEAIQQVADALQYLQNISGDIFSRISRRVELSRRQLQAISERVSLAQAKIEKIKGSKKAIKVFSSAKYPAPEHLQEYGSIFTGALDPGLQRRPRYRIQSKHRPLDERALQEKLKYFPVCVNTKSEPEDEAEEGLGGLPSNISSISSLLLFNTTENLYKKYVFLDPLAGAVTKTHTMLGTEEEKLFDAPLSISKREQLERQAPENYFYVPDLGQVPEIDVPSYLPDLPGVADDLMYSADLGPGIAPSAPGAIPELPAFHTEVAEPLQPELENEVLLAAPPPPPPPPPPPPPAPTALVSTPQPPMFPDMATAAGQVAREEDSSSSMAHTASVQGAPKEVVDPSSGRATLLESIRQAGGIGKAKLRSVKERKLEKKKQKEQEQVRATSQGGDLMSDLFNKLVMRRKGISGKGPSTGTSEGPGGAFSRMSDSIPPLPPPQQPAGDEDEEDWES


Tests used:
[1] = target: T1, GST-WASH (mouse); test: pull-down; GST-WASH incubated with LPL lysates of small intestine, GST pulldown; only the target purified
[2] = target: T2, WASH (mouse (endogenous in ILC3 cells)); test: co-IP; 4 x 10^5 NKp46+ ILC3 cells; nuclear pellets lysed in RIPA buffer, lysates treated by DNase I, anti-WASH antibody, protein A/G agarose, immunoblot
[3] = target: Flag-tagged WT Arid1a (mouse) (UniProt A2BH40); test: co-IP; Flag-tagged WT or truncated Arid1a co-transfected with HA-tagged WASH into NK92 cells, immunoprecipitation with antibody against Flag

Row | binding [1] | binding [2] | binding [3] | Molecule
1 | binds | binds | – | Arid1a (from UniProt A2BH40 1-2283)
2 | – | – | binds | HA-tagged WASH (protein, UniProt Q8VDD8 1-475) MTPVKTQCSLAGQLYAVPLIQPDLRREEAIQQVADALQYLQNISGDIFSRISRRVELSRRQLQAISERVSLAQAKIEKIKGSKKAIKVFSSAKYPAPEHLQEYGSIFTGALDPGLQRRPRYRIQSKHRPLDERALQEKLKYFPVCVNTKSEPEDEAEEGLGGLPSNISSISSLLLFNTTENLYKKYVFLDPLAGAVTKTHTMLGTEEEKLFDAPLSISKREQLERQAPENYFYVPDLGQVPEIDVPSYLPDLPGVADDLMYSADLGPGIAPSAPGAIPELPAFHTEVAEPLQPELENEVLLAAPPPPPPPPPPPPPAPTALVSTPQPPMFPDMATAAGQVAREEDSSSSMAHTASVQGAPKEVVDPSSGRATLLESIRQAGGIGKAKLRSVKERKLEKKKQKEQEQVRATSQGGDLMSDLFNKLVMRRKGISGKGPSTGTSEGPGGAFSRMSDSIPPLPPPQQPAGDEDEEDWES
